Values are relative to the signal before dosing, not to a vehicle control; the signal also falls without drug.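 Fibroblast labels name human fibroblasts: mostly primary ones from tissues such as uterus (C12385, HUF), lung (H6013), bone (Hs27A), adrenal (HADF) and skin (WS1), plus mammary HMF and breast cancer-associated Hs343T. The cancer cells are basal-like or mesenchymal-like triple-negative breast cancer lines. The paper calls a changed response a hit when it shifts by more than 3x the replicate standard deviation. The tissue of the other fibroblasts is not given here.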
System: HCC1143
Experiment: relative JC-1 red fluorescence (viability) vs pre-drug, coculture with fibroblast (fraction); higher = more viable cancer cells
Conditions: 100 µM
Description: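 JC-1 labelled TNBC cells cocultured 1:1 (1,500 cells each) with CellTrace Violet stained primary or stromal fibroblasts in 384-well plates in FluoroBrite medium, treated with one of 42 anticancer drugs at 0.1, 1, 10 or 100 uM. JC-1 red fluorescence (mitochondrial integrity in cancer cells only) was read by plate reader every 8 h for 72 h. Values are normalised to each well's pre-drug value. The stock of one drug was tenfold lower, so its dose labels may be too high.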

CC(=O)c1c(C)c2cnc(Nc3ccc(N4CCNCC4)cn3)nc2n(C2CCCC2)c1=O [Palbociclib]
relative JC-1 red fluorescence
Conditions	8 h	16 h	24 h	32 h	40 h	48 h	56 h	64 h	72 h
coculture fibroblast: C12385	0.30376	0.187	0.169	0.133	0.0904	0.077	0.0639	0.0481	0.0371
coculture fibroblast: H6013	0.281	0.246	0.219	0.188	0.167	0.16	0.133	0.117	0.0662
coculture fibroblast: H6019	0.246	0.124	0.0999	0.0648	0.0406	0.0335	0.0181	0.0284	0.0174
coculture fibroblast: H6076	0.837	0.9196	0.897	0.81	0.802	0.794	0.75	0.711	0.684
coculture fibroblast: H6231	0.836	0.84	0.741	0.626	0.596	0.572	0.524	0.465	0.44
coculture fibroblast: HADF	0.255	0.161	0.127	0.0979	0.0752	0.0703	0.0512	0.0462	0.0172
coculture fibroblast: HCFa	0.391	0.16	0.123	0.0963	0.0737	0.0627	0.0396	0.025	0.0203
coculture fibroblast: HCPF	0.8601	0.969	0.879	0.683	0.7389	0.686	0.639	0.6	0.571
coculture fibroblast: HHSteC	0.349	0.246	0.212	0.175	0.156	0.145	0.119	0.102	0.0533
coculture fibroblast: HMF	0.829	0.9666	0.866	0.721	0.722	0.69	0.638	0.578	0.538
coculture fibroblast: HPFa	0.48	0.303	0.286	0.248	0.219	0.216	0.192	0.185	0.167
coculture fibroblast: HUF	0.498	0.31	0.241	0.202	0.184	0.18	0.157	0.149	0.14
coculture fibroblast: Hs5	0.813	0.9038	0.8202	0.729	0.6558	0.583	0.509	0.455	0.4
coculture fibroblast: Hs27A	0.43	0.339	0.255	0.227	0.189	0.195	0.161	0.143	0.0818
coculture fibroblast: Hs343T	0.83876	0.9575	0.84503	0.716	0.7237	0.696	0.63	0.567	0.501
coculture fibroblast: WS1	0.283	0.182	0.157	0.123	0.0982	0.0855	0.0677	0.0528	0.0402

Source: the supplement of paper PMC6078165
